Test results published in publication PMC2654099.
Results are given in words; binding and its absence hold for the method and conditions named. For some of these results: In cells and extracts the contact can be indirect. Some results given as binding are weak or reduced against the parent protein; the word gives no strength. For some of these results: Sequences can lack the tags named with a protein.

Sequences of proteins named here, by UniProt entry; tags and fusion partners are left off. A change or cut given only in a name is not applied to a line headed by its entry. A line that says so, or that is headed by a name, gives the form on record, which may keep a tag or linker.
PP1γ2, endogenous in cauda epididymal sperm (P63087-2, form named): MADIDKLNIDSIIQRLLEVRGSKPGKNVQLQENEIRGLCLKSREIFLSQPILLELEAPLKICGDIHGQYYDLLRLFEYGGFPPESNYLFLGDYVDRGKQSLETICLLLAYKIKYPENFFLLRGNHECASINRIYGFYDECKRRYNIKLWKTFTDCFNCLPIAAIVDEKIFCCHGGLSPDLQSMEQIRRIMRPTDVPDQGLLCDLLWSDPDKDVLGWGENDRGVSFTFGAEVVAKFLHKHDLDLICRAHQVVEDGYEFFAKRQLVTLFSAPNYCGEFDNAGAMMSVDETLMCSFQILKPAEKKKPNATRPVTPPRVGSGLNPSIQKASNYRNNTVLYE

How the values were obtained:
[1] = target: T1, PPP1R11 (protein phosphatase 1 regulatory subunit 11), endogenous in mouse testis (mouse (endogenous in testis)) (UniProt Q8K1L5); assay: native gel or EMSA; Superose 6 fractions C4 and C5 of mouse testis proteins separated by native PAGE (10% Tris-HCl gel); replicate blot strips probed with anti-PPP1R11, anti-PP1γ2 or anti-Sds22
T1 sequence: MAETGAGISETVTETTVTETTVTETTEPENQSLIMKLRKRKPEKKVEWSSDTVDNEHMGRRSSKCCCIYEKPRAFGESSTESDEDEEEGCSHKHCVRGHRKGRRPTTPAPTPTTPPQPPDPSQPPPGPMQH

[2] = target: T2, Sds22 (protein phosphatase 1 regulatory subunit 7, PPP1R7), endogenous in mouse testis (mouse (endogenous in testis)) (UniProt Q3UM45); assay: co-IP; Superose 6 fractions (C4 and C5) of mouse testis extracts, anti-PPP1R11, anti-PP1γ2 or anti-Sds22 (preimmune serum as control) on Protein G-Sepharose 4 beads; western blot
T2 sequence: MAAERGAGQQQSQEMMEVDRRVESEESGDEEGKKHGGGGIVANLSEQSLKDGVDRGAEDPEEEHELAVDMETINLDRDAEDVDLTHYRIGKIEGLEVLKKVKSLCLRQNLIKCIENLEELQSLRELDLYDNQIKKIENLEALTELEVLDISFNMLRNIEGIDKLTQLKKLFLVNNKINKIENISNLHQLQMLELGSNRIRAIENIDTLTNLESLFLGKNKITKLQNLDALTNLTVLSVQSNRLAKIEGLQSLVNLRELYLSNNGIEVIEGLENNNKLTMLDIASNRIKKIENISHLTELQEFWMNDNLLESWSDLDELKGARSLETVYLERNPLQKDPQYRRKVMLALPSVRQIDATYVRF

[3] = target: T1, PPP1R11 (protein phosphatase 1 regulatory subunit 11), endogenous in mouse testis (mouse (endogenous in testis)); assay: as above
[4] = target: T3, GST-tagged recombinant PPP1R11 (mouse) (UniProt Q8K1L5); assay: pull-down; GST-PPP1R11 or GST alone on Glutathione Sepharose 4B beads incubated with mouse testis extracts, 2 h at 4°C; eluted with 20 mM reduced glutathione, 50 mM Tris, pH 8.0; western blot; only the target purified
T3 sequence: T1 sequence

[5] = target: T1, PPP1R11 (protein phosphatase 1 regulatory subunit 11), endogenous in mouse testis (mouse (endogenous in testis)); assay: SEC; mouse testis extracts fractionated in series by DEAE, MonoQ and Superose 6 columns; fractions analysed by western blot
[6] = target: T2, Sds22 (protein phosphatase 1 regulatory subunit 7, PPP1R7), endogenous in mouse testis (mouse (endogenous in testis)); assay: co-IP; mouse testis fractions purified by DEAE-, MonoQ- and Superdex 200-column chromatography, immunoprecipitated with anti-actin, anti-PPP1R11, anti-Sds22 or anti-PP1γ2; western blot
[7] = target: T1, PPP1R11 (protein phosphatase 1 regulatory subunit 11), endogenous in mouse testis (mouse (endogenous in testis)); assay: as above
[8] = target: T1, PPP1R11 (protein phosphatase 1 regulatory subunit 11), endogenous in mouse testis (mouse (endogenous in testis)); assay: co-IP; crude mouse testis extracts, anti-PP1γ2 or anti-PPP1R11 (preimmune serum as control) on Protein G-Sepharose 4 beads, 4°C; western blot
[9] = target: PP1γ2 (protein phosphatase 1 gamma 2 isoform), endogenous in mouse testis (mouse (endogenous in testis)) (UniProt P63087); assay: native gel or EMSA; Superose 6 fractions C4 and C5 of mouse testis proteins separated by native PAGE (10% Tris-HCl gel); replicate blot strips probed with anti-PPP1R11, anti-PP1γ2 or anti-Sds22
[10] = target: PP1γ2 (protein phosphatase 1 gamma 2 isoform), endogenous in mouse testis (mouse (endogenous in testis)) (UniProt P63087); assay: co-IP; Superose 6 fractions (C4 and C5) of mouse testis extracts, anti-PPP1R11, anti-PP1γ2 or anti-Sds22 (preimmune serum as control) on Protein G-Sepharose 4 beads; western blot
[11] = target: PP1γ2 (protein phosphatase 1 gamma 2 isoform), endogenous in mouse testis (mouse (endogenous in testis)) (UniProt P63087); assay: SEC; mouse testis extracts fractionated in series by DEAE, MonoQ and Superose 6 columns; fractions analysed by western blot
[12] = target: PP1γ2 (protein phosphatase 1 gamma 2 isoform), endogenous in mouse testis (mouse (endogenous in testis)) (UniProt P63087); assay: co-IP; mouse testis fractions purified by DEAE-, MonoQ- and Superdex 200-column chromatography, immunoprecipitated with anti-actin, anti-PPP1R11, anti-Sds22 or anti-PP1γ2; western blot
[13] = target: PP1γ2 (protein phosphatase 1 gamma 2 isoform), endogenous in mouse testis (mouse (endogenous in testis)) (UniProt P63087); assay: native gel or EMSA; Superdex 200 fraction of mouse testis proteins on a non-denaturing gel; Coomassie band matching the common immunoreactive band excised and microsequenced after in-gel proteolysis (data not shown)
[14] = target: PP1γ2 (protein phosphatase 1 gamma 2 isoform), endogenous in mouse testis (mouse (endogenous in testis)) (UniProt P63087); assay: co-IP; crude mouse testis extracts, anti-PP1γ2 or anti-PPP1R11 (preimmune serum as control) on Protein G-Sepharose 4 beads, 4°C; western blot
[15] = target: PP1γ2, endogenous in cauda epididymal sperm (UniProt P63087); assay: SEC; cauda sperm protein extracts fractionated by DEAE, MonoQ and Superose 6; fractions immunoblotted with anti-Sds22, anti-PP1γ2, anti-PPP1R11, anti-PP2A and anti-actin

Measured: binding

PP1γ2 (protein phosphatase 1 gamma 2 isoform), endogenous in mouse testis (from UniProt P63087-2 1-337) (enzyme)
binds: [1] | [2] | [3] | [4] | [5] | [6] | [7] | [8]

B1: Sds22 (protein phosphatase 1 regulatory subunit 7, PPP1R7), endogenous in mouse testis (protein, UniProt Q3UM45 1-361)
chain: T2 sequence
not listed: [2] | [6] | [15]
binds: all other assays above

B2: PPP1R11 (protein phosphatase 1 regulatory subunit 11), endogenous in mouse testis (protein, UniProt Q8K1L5 1-131)
chain: T1 sequence
binds: [2] | [10] | [6] | [12] | [13] | [14]

B3: PPP1R11, endogenous in cauda epididymal sperm (protein, UniProt Q8K1L5 1-131)
chain: T1 sequence
binds: [15]

B4: Sds22, endogenous in cauda epididymal sperm (protein, UniProt Q3UM45 1-361)
chain: T2 sequence
binds: [15]
